This is an account of results in paper doi:10.1101/2020.10.28.358580.

The chains behind the UniProt entries cited, without tags or fusion partners. Where a name states a change or a piece, a line headed by the entry shows the natural chain unless it says otherwise.
UniProt P13569: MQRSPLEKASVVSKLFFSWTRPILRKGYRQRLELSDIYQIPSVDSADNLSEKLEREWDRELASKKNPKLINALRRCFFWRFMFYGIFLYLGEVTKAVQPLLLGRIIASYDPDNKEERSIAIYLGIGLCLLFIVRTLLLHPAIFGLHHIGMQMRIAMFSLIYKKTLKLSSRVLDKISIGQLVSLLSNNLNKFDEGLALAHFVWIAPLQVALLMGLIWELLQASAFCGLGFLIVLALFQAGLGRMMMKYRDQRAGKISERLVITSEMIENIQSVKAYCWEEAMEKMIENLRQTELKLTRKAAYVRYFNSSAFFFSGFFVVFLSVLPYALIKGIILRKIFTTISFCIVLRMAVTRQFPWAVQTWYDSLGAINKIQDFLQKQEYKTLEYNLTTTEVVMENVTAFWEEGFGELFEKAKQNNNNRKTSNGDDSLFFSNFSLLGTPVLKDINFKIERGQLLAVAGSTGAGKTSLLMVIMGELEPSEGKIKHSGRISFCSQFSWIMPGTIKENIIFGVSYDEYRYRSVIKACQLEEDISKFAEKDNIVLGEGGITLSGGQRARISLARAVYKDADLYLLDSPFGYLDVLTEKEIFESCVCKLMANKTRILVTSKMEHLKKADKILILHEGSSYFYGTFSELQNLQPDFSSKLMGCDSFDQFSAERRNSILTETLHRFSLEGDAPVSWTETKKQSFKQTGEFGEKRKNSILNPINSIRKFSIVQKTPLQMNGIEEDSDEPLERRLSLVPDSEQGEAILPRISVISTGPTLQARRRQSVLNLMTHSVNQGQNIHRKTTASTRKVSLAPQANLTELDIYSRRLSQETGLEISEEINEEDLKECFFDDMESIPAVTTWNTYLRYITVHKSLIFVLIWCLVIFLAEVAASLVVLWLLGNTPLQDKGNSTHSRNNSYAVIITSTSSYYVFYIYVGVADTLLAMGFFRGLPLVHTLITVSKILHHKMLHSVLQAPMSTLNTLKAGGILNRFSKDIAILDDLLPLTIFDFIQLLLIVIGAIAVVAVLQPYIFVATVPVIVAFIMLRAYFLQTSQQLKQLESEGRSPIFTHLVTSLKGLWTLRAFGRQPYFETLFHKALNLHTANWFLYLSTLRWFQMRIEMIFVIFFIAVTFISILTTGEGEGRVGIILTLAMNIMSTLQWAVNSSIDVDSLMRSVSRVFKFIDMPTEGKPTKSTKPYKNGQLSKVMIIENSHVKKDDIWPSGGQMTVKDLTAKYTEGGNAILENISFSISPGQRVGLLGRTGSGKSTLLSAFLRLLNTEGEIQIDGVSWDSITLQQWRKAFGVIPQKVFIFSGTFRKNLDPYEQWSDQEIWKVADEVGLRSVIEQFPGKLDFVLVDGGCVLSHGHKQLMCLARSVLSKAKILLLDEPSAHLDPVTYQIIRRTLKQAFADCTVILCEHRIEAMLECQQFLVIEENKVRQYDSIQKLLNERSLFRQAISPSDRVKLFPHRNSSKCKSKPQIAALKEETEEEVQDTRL

The target in this experiment is T1, JB12-APEX (UniProt Q9NXW2).
T1 sequence: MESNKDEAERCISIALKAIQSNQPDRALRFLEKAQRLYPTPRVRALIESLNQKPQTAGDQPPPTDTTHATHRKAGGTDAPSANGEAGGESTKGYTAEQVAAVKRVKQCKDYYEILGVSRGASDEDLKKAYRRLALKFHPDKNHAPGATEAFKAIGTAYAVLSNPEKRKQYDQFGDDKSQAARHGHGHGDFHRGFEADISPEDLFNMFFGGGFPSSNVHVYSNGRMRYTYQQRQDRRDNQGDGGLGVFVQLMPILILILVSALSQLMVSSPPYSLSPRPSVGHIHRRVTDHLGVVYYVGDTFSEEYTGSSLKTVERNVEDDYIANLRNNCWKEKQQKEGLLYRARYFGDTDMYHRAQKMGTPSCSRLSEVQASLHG
Briefly: proximity labelling.

These are yes or no findings as the source states them, for the method shown. Binding seen in cells or lysates may run through a third protein. These calls come from enrichment with a bait or labelling near it, and not all partners need be listed.

In the case of “N1303K-CFTR (from UniProt P13569 1-1480)”, the binding result was “binds”.
